These results are taken from PMC6571972 (Pharmaceutics, 2019).

The data set in a line: general procedure: Fmoc solid-phase peptide synthesis; chlorotrityl resin; DIC/Oxyma. The conditions noted are these: for final HPLC purity: 220 nm.

Consider N3-PEG4-Val-Cit-Gly-Pro, for which, under “whole synthesis”, the “final HPLC purity” value was determined as 91% purity.

With N3-PEG4-Val-Cit-Gly-Pro-Cry-55gly, under “conjugation step”, the conjugation yield came to 79% yield and the “final HPLC purity” value is on record as 97% purity. N3-PEG4-Val-Cit-Gly-Pro-Cy5.5: for the setting “conjugation step”, the conjugation yield is recorded as 98% yield and the “final HPLC purity” value is on record as over 99% purity. In the case of N3-PEG4-Val-Cit-Pro-Gly, under “whole synthesis”, the “final HPLC purity” value is on record as over 99% purity. N3-PEG4-Val-Cit-Pro-Gly-Cry-55gly: under “conjugation step”, the conjugation yield is 54% yield and the “final HPLC purity” value is reported as over 99% purity.
